Where two headings read alike, the source gives them in different places. At least one compound was matched to its structure with a doubt left.
System: antibody to a retinoic acid derivative
Assay: ELISA control for nonspecific inhibition
Format: binding

CC1=C(/C=C/C(C)=C/C=C/C(C)=C/C(=O)O)C(C)(C)CCC1 [retinoic acic derivative]
nonspecific inhibition of antibody to retinoic acid derivative binding its hapten-RSA conjugate: inhibition seen
nonspecific inhibition of antibody to retinoic acid derivative binding its hapten-RSA conjugate (listed as retinoic acid): inhibition

Reference: patent US6593137B1, “Antibodies specific for fullerenes” (The Trustees of Columbia University in the City of New York, priority 1999, dated 2003)
